Assay results published in PMC6079634.
No constants are given. Whether binding was seen depends on the method and setting. Binding seen in cells or lysates may run through a third protein. These calls come from enrichment with a bait or labelling near it, and not all partners need be listed. Each block holds one molecule with its values, some of them ahead of it.

Sequences of proteins named here, by UniProt entry; tags and fusion partners are left off. Residues count along the entry.
UniProt O75643: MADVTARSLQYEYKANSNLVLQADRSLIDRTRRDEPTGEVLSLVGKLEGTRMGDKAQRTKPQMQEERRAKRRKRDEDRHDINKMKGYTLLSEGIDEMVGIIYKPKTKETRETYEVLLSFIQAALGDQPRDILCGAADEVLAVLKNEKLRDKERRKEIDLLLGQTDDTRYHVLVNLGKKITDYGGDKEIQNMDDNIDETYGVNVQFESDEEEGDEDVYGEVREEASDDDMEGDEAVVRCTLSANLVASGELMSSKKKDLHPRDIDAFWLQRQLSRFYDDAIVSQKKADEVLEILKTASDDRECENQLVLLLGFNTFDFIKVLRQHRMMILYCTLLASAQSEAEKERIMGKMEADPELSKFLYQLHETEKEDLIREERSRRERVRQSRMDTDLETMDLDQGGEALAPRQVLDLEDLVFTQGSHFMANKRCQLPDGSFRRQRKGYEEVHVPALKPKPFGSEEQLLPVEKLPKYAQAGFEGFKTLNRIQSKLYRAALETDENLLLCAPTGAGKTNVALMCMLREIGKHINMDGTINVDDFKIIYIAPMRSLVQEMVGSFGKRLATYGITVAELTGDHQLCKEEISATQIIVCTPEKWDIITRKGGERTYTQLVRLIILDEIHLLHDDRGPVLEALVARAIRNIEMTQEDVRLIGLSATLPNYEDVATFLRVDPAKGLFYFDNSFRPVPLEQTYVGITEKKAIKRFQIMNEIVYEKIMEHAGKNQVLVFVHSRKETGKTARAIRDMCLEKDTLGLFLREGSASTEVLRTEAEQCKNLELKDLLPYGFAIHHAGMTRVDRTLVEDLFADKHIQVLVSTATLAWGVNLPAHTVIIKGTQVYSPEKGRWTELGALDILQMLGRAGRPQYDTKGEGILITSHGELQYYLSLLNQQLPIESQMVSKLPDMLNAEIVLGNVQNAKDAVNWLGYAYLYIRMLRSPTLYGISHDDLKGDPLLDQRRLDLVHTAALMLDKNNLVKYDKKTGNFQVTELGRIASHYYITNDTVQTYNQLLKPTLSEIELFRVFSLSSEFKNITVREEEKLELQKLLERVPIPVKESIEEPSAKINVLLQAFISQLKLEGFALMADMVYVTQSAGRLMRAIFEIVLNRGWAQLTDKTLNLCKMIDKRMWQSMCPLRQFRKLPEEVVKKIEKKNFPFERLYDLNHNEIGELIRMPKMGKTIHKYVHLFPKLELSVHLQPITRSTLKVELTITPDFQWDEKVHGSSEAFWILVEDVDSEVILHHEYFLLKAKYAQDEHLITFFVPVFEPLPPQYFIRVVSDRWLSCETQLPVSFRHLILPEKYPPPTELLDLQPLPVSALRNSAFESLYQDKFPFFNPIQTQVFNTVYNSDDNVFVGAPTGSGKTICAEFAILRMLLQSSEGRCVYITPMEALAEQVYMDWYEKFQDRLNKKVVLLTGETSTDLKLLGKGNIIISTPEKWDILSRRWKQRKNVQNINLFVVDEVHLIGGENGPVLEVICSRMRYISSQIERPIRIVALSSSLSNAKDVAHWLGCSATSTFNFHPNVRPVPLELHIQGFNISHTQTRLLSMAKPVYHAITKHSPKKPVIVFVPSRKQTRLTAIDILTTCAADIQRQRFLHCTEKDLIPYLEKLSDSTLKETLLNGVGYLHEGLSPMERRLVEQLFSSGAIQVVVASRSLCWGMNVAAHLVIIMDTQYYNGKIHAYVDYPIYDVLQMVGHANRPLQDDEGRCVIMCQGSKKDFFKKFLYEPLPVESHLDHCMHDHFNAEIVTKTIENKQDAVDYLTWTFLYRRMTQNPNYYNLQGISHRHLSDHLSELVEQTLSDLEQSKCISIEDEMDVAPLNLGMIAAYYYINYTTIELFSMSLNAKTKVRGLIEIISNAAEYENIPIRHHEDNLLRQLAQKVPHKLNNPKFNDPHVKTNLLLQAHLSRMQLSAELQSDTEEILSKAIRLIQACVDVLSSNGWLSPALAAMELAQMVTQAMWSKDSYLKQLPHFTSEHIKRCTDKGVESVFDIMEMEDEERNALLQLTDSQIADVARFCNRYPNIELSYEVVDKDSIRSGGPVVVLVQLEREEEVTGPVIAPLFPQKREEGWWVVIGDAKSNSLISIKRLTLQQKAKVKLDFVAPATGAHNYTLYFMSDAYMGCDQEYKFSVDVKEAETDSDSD
UniProt O75475: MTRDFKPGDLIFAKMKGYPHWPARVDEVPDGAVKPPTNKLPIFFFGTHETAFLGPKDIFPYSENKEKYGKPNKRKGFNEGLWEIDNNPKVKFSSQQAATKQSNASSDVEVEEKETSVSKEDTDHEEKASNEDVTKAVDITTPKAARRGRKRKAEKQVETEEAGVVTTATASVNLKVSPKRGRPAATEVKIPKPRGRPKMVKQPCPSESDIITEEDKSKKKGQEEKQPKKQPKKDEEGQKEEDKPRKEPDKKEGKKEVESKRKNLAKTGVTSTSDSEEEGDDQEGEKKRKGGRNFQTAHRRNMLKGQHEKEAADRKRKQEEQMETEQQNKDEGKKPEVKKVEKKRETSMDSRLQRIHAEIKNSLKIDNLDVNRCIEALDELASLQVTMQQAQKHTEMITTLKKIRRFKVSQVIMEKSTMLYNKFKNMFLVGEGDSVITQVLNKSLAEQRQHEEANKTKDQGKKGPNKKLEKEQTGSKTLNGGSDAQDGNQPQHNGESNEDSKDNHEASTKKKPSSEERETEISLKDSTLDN
UniProt P02545, residues 1-646: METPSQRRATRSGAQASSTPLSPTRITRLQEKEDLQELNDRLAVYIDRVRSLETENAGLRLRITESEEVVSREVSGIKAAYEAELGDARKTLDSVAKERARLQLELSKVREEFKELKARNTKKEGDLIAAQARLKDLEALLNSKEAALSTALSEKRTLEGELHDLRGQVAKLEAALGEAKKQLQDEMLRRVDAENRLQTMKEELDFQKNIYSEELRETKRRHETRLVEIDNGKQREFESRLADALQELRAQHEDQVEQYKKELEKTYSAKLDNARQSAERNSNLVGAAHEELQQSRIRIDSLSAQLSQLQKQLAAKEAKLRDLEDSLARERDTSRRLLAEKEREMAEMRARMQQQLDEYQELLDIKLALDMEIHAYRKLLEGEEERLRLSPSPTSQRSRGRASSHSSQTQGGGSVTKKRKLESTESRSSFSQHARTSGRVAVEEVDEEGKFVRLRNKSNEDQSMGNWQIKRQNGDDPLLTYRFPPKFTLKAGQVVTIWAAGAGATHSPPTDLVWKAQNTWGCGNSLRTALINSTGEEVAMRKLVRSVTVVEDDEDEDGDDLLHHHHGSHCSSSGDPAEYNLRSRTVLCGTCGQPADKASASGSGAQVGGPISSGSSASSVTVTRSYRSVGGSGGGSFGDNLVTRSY
UniProt Q07157: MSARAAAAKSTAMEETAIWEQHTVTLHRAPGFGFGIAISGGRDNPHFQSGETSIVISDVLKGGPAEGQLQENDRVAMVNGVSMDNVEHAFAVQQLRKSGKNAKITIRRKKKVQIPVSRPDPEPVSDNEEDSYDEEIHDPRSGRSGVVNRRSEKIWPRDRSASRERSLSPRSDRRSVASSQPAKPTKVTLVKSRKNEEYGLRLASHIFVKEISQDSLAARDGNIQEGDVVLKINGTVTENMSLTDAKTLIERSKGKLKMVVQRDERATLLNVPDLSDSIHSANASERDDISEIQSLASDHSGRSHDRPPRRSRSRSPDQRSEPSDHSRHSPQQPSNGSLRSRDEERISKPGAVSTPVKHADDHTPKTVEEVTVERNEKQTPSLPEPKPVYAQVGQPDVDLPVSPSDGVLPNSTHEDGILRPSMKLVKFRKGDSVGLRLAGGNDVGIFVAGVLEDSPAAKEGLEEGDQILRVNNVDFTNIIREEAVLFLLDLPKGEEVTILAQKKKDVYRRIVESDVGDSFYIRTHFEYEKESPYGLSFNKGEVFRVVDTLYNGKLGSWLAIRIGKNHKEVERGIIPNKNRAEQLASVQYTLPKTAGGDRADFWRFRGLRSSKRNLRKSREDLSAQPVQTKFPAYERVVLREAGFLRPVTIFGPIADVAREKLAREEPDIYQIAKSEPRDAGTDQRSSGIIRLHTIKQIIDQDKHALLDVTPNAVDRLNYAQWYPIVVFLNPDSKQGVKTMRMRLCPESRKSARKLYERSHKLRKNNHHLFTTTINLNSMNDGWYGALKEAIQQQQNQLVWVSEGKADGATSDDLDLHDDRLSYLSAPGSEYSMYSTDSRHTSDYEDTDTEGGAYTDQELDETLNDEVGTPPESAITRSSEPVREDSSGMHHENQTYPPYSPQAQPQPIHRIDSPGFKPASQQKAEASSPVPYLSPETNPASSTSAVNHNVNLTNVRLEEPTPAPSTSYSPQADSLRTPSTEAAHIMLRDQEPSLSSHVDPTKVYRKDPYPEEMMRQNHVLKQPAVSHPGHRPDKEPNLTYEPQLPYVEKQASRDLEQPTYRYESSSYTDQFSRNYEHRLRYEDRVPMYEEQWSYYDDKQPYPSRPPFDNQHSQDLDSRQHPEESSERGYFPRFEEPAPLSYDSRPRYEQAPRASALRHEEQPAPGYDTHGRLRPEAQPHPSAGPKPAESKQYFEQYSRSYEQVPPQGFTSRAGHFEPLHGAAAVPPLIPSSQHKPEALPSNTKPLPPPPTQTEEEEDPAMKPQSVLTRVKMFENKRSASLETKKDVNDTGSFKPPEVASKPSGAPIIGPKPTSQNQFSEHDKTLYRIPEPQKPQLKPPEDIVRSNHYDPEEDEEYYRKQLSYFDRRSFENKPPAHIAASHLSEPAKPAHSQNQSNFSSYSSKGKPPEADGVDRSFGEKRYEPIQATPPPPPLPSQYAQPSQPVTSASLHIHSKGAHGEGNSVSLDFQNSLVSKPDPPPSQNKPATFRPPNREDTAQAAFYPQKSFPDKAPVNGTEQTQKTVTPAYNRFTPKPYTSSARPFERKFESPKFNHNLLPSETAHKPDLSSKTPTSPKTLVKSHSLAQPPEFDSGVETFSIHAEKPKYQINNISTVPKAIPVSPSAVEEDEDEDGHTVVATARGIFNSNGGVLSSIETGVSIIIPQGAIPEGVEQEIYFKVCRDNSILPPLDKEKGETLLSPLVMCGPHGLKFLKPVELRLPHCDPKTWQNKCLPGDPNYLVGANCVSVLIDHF
UniProt Q09161: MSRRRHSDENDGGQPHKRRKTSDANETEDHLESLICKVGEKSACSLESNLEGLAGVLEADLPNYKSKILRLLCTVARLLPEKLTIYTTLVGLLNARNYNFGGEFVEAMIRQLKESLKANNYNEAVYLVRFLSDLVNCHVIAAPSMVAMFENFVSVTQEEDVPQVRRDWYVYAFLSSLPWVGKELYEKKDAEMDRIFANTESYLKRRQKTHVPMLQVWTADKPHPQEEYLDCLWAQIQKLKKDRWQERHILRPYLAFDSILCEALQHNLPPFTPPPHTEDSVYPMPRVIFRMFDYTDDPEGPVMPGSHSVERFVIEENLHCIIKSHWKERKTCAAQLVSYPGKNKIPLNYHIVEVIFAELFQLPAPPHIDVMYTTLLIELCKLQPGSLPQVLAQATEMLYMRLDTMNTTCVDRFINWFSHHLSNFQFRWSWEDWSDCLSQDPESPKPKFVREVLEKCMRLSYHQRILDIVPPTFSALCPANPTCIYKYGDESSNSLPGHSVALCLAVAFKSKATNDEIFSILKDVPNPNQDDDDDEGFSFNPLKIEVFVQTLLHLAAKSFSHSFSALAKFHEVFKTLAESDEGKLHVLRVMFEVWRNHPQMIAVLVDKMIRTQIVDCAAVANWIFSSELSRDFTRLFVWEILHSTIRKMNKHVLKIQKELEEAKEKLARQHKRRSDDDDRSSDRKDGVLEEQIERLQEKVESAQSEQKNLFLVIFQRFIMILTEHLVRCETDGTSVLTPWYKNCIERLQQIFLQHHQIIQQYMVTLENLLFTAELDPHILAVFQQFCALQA
UniProt O00567: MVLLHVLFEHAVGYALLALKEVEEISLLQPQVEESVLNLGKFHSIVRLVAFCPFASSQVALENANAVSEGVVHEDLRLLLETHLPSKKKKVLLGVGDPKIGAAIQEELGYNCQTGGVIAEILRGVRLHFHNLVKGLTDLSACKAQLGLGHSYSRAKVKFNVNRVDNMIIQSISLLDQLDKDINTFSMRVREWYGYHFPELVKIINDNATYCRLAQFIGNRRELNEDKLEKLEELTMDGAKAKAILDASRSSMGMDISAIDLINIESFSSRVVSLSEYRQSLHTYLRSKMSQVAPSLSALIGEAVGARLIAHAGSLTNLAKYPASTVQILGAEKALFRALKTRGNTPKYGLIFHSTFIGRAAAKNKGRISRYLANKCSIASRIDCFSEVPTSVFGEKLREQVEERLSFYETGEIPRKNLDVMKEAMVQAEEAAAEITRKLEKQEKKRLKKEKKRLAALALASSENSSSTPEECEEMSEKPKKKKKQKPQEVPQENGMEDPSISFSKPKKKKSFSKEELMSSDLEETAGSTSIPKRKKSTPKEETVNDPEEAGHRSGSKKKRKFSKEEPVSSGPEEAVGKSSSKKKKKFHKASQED

Tests used:
[1] = target: T1, GB1‐OCLN_N recombinant protein (occludin N‐terminal domain, 1‐65) (human) (UniProt Q16625); experiment: affinity purification with mass spectrometry; GB1‐OCLN_N, GB1‐OCLN_C or GB1‐6His control adsorbed onto IgG beads; 1321N1 cell lysate (cells treated with 5 mM CaCl2 and 4 μM A23187 for 15 min before lysis; 1 mg/ml) incubated O/N at 4°C; eluted by boiling in Laemmli buffer, SDS‐PAGE, in-gel digestion, ESI‐MS (Mascot, Swiss‐Prot); only the target purified
T1 sequence: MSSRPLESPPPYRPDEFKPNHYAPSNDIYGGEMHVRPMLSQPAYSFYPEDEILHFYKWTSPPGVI

[2] = target: T2, GB1‐OCLN_C recombinant protein (occludin C‐terminal domain, 271‐522) (human) (UniProt Q16625); experiment: as above
T2 sequence: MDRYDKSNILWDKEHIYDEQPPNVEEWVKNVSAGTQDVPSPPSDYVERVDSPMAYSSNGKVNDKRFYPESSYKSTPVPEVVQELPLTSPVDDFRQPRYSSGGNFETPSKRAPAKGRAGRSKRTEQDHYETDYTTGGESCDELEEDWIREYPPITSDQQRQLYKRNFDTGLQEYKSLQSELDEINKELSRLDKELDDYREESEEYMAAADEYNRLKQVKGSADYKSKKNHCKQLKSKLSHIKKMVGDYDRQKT

Molecule: Core histone macro‐H2A.1 (from UniProt O75367 1-369)
binding [1]: binds

Molecule: Hornerin (from UniProt Q86YZ3 1-2850)
binding [2]: binds

Molecule: Poly(rC)‐binding protein 1 (from UniProt Q15365 1-356)
binding [2]: binds

Molecule: Glyceraldehyde‐3‐phosphate dehydrogenase (from UniProt P04406 1-335)
binding [2]: binds

Molecule: RNA‐binding motif protein, X chromosome (from UniProt P38159 1-391)
binding [1]: binds

Molecule: ATP‐dependent RNA helicase DDX3X (from UniProt O00571 1-662)
binding [2]: binds

Molecule: U5 small nuclear ribonucleoprotein 200 kDa helicase (from UniProt O75643 1-2136)
binding [1]: binds

Molecule: SWI/SNF‐related matrix‐associated actin‐dependent regulator of chromatin subfamily A member 5 (from UniProt O60264 1-1052)
binding [1]: binds

B2: Nucleolar protein 58 (protein, UniProt Q9Y2X3 1-529)
chain: MLVLFETSVGYAIFKVLNEKKLQEVDSLWKEFETPEKANKIVKLKHFEKFQDTAEALAAFTALMEGKINKQLKKVLKKIVKEAHEPLAVADAKLGGVIKEKLNLSCIHSPVVNELMRGIRSQMDGLIPGVEPREMAAMCLGLAHSLSRYRLKFSADKVDTMIVQAISLLDDLDKELNNYIMRCREWYGWHFPELGKIISDNLTYCKCLQKVGDRKNYASAKLSELLPEEVEAEVKAAAEISMGTEVSEEDICNILHLCTQVIEISEYRTQLYEYLQNRMMAIAPNVTVMVGELVGARLIAHAGSLLNLAKHAASTVQILGAEKALFRALKSRRDTPKYGLIYHASLVGQTSPKHKGKISRMLAAKTVLAIRYDAFGEDSSSAMGVENRAKLEARLRTLEDRGIRKISGTGKALAKTEKYEHKSEVKTYDPSGDSTLPTCSKKRKIEQVDKEDEITEKKAKKAKIKVKVEEEEEEKVAEEEETSVKKKKKRGKKKHIKEEPLSEEEPCTSTAIASPEKKKKKKKKRENED
binding [1]: binds

B3: Non‐POU domain‐containing octamer‐binding protein (protein, UniProt Q15233 1-471)
chain: MQSNKTFNLEKQNHTPRKHHQHHHQQQHHQQQQQQPPPPPIPANGQQASSQNEGLTIDLKNFRKPGEKTFTQRSRLFVGNLPPDITEEEMRKLFEKYGKAGEVFIHKDKGFGFIRLETRTLAEIAKVELDNMPLRGKQLRVRFACHSASLTVRNLPQYVSNELLEEAFSVFGQVERAVVIVDDRGRPSGKGIVEFSGKPAARKALDRCSEGSFLLTTFPRPVTVEPMDQLDDEEGLPEKLVIKNQQFHKEREQPPRFAQPGSFEYEYAMRWKALIEMEKQQQDQVDRNIKEAREKLEMEMEAARHEHQVMLMRQDLMRRQEELRRMEELHNQEVQKRKQLELRQEEERRRREEEMRRQQEEMMRRQQEGFKGTFPDAREQEIRMGQMAMGGAMGINNRGAMPPAPVPAGTPAPPGPATMMPDGTLGLTPPTTERFGQAATMEGIGAIGGTPPAFNRAAPGAEFAPNKRRRY
binding [1]: binds

B4: Heterogeneous nuclear ribonucleoprotein L (protein, UniProt P14866 1-589)
chain: MSRRLLPRAEKRRRRLEQRQQPDEQRRRSGAMVKMAAAGGGGGGGRYYGGGSEGGRAPKRLKTDNAGDQHGGGGGGGGGAGAAGGGGGGENYDDPHKTPASPVVHIRGLIDGVVEADLVEALQEFGPISYVVVMPKKRQALVEFEDVLGACNAVNYAADNQIYIAGHPAFVNYSTSQKISRPGDSDDSRSVNSVLLFTILNPIYSITTDVLYTICNPCGPVQRIVIFRKNGVQAMVEFDSVQSAQRAKASLNGADIYSGCCTLKIEYAKPTRLNVFKNDQDTWDYTNPNLSGQGDPGSNPNKRQRQPPLLGDHPAEYGGPHGGYHSHYHDEGYGPPPPHYEGRRMGPPVGGHRRGPSRYGPQYGHPPPPPPPPEYGPHADSPVLMVYGLDQSKMNCDRVFNVFCLYGNVEKVKFMKSKPGAAMVEMADGYAVDRAITHLNNNFMFGQKLNVCVSKQPAIMPGQSYGLEDGSCSYKDFSESRNNRFSTPEQAAKNRIQHPSNVLHFFNAPLEVTEENFFEICDELGVKRPSSVKVFSGKSERSSSGLLEWESKSDALETLGFLNHYQMKNPNGPYPYTLKLCFSTAQHAS
binding [1]: binds

The next lines start with the values.

binding [1]: binds
Molecule: Interleukin enhancer‐binding factor 2 (from UniProt Q12905 1-390)

binding [1]: binds
Molecule: PC4 and SFRS1‐interacting protein (from UniProt O75475 1-530)

binding [2]: binds
Molecule: Prelamin‐A/C (from UniProt P02545 1-646)

binding [2]: binds
Molecule: Tight junction protein ZO‐1 (from UniProt Q07157 1-1748)

binding [1]: binds
Molecule: DNA topoisomerase 2‐beta (from UniProt Q02880 1-1626)

binding [1]: binds
Molecule: Nuclear cap‐binding protein subunit 1 (from UniProt Q09161 1-790)

binding [1]: binds
Molecule: E3 ubiquitin‐protein ligase NEDD4 (from UniProt P46934 1-1319)

binding [1]: binds
Molecule: ELAV‐like protein 1 (from UniProt Q15717 1-326)

binding [1]: binds
Molecule: Nucleophosmin (from UniProt P06748 1-294)

binding [1]: binds
Molecule: Nucleolar RNA helicase 2 (from UniProt Q9NR30 1-783)

binding [1]: binds
Molecule: Myosin‐10 (from UniProt P35580 1-1976)

binding [1]: binds
Molecule: Peptidyl‐prolyl cis‐trans isomerase B (from UniProt P23284 34-216)

binding [1]: binds
Molecule: Putative pre‐mRNA‐splicing factor ATP‐dependent RNA helicase DHX15 (from UniProt O43143 1-795)

binding [1]: binds
Molecule: Nucleolar protein 56 (from UniProt O00567 1-594)

binding [1]: binds
B1: Dermcidin (protein, UniProt P81605 20-110)
chain: YDPEAASAPGSGNPCHEASAAQKENAGEDPGLARQAPKPRKQRSSLLEKGLDGAKKAVGGLGKLGKDAVEDLESVGKGAVHDVKDVLDSVL

binding [1]: binds
B5: Myosin regulatory light chain 12A (protein, UniProt P19105 1-171)
chain: MSSKRTKTKTKKRPQRATSNVFAMFDQSQIQEFKEAFNMIDQNRDGFIDKEDLHDMLASLGKNPTDEYLDAMMNEAPGPINFTMFLTMFGEKLNGTDPEDVIRNAFACFDEEATGTIQEDYLRELLTTMGDRFTDEEVDELYREAPIDKKGNFNYIEFTRILKHGAKDKDD
